Data as given in PubChem BioAssay AID1259308 (NCATS, 2017)

- Test: 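Knock-downs that increase output of a recombinant reporter protein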 (primary screen)
- System: human HEK293 embryonic kidney cells stably expressing firefly luciferase (HEK-CMV-Luc2-Hygro)
- Reagent: single siRNA against human genes, 0.8 pmol siRNA per well
- Time to read-out: 72 h
- Measured: 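Reporter luminescence and viable-cell signal on separate replicate plates, given as percent of non-targeting control and median/MAD z-scores, plus per-cell luciferase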
- Reading the numbers: total luciferase, z-score and total luciferase, % of control: higher = more reporter protein produced
- Hit rule: 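An siRNA counts as active if its total luciferase robust z-score exceeds 3; genes with two or more such siRNAs out of three were retested with fresh siRNAs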
- Calls: active = raised luciferase; inactive = no rise
In all, the deposit lists about 59,000 reagents; shown is an unselected part. About 1,510 of all reagents (2.6%) were called active. 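Calls use total luciferase alone and ignore viability, so some active siRNAs may act by altering cell number.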 Not all columns of the deposit are shown.

B3GAT1 [SID160724363] → total luciferase, z-score: -1.04; total luciferase, % of control: 61.2; activity call: inactive
B3GAT1 [SID160738343] → total luciferase, z-score: 1.98; total luciferase, % of control: 121; activity call: inactive
B3GAT1 [SID160738344] → total luciferase, z-score: 2.57; total luciferase, % of control: 133; activity call: inactive
ESD [SID160775873] → total luciferase, z-score: 2.06; total luciferase, % of control: 123; activity call: inactive
ESD [SID160775884] → total luciferase, z-score: 0.511; total luciferase, % of control: 92; activity call: inactive
ESD [SID160775895] → total luciferase, z-score: 1.38; total luciferase, % of control: 109; activity call: inactive
FMN1 [SID160764590] → total luciferase, z-score: -0.0325; total luciferase, % of control: 81.2; activity call: inactive
FMN1 [SID160764591] → total luciferase, z-score: -0.905; total luciferase, % of control: 63.9; activity call: inactive
FMN1 [SID160764593] → total luciferase, z-score: 0.491; total luciferase, % of control: 91.7; activity call: inactive
FMN1 [SID160769177] → total luciferase, z-score: 1.5; total luciferase, % of control: 112; activity call: inactive
FMN1 [SID160769178] → total luciferase, z-score: 1.23; total luciferase, % of control: 106; activity call: inactive
FMN1 [SID160769179] → total luciferase, z-score: -0.448; total luciferase, % of control: 73; activity call: inactive
FAM120B [SID160752316] → total luciferase, z-score: 1.26; total luciferase, % of control: 107; activity call: inactive
FAM120B [SID160752317] → total luciferase, z-score: -0.294; total luciferase, % of control: 76; activity call: inactive
FAM120B [SID160752318] → total luciferase, z-score: -1.08; total luciferase, % of control: 60.5; activity call: inactive
MDC1 [SID160722729] → total luciferase, z-score: -1.55; total luciferase, % of control: 51.1; activity call: inactive
MDC1 [SID160722730] → total luciferase, z-score: -0.038; total luciferase, % of control: 81.1; activity call: inactive
MDC1 [SID160722732] → total luciferase, z-score: 1.06; total luciferase, % of control: 103; activity call: inactive
CYP4F22 [SID160756487] → total luciferase, z-score: 2.15; total luciferase, % of control: 125; activity call: inactive
CYP4F22 [SID160756488] → total luciferase, z-score: -0.773; total luciferase, % of control: 66.5; activity call: inactive
CYP4F22 [SID160756489] → total luciferase, z-score: 0.0707; total luciferase, % of control: 83.3; activity call: inactive
HIF1AN [SID160744029] → total luciferase, z-score: 0.588; total luciferase, % of control: 93.6; activity call: inactive
HIF1AN [SID160744030] → total luciferase, z-score: 0.238; total luciferase, % of control: 86.6; activity call: inactive
HIF1AN [SID160744031] → total luciferase, z-score: 3.15; total luciferase, % of control: 145; activity call: active
GIMAP8 [SID160759468] → total luciferase, z-score: 0.168; total luciferase, % of control: 85.2; activity call: inactive
GIMAP8 [SID160759469] → total luciferase, z-score: 0.0687; total luciferase, % of control: 83.3; activity call: inactive
GIMAP8 [SID160759471] → total luciferase, z-score: -0.969; total luciferase, % of control: 62.6; activity call: inactive
CNOT6 [SID160746046] → total luciferase, z-score: 0.373; total luciferase, % of control: 89.3; activity call: inactive
CNOT6 [SID160746047] → total luciferase, z-score: -0.558; total luciferase, % of control: 70.8; activity call: inactive
CNOT6 [SID160746048] → total luciferase, z-score: 0.578; total luciferase, % of control: 93.4; activity call: inactive
OR7G3 [SID160766589] → total luciferase, z-score: 2.65; total luciferase, % of control: 135; activity call: inactive
OR7G3 [SID160766590] → total luciferase, z-score: 0.463; total luciferase, % of control: 91.1; activity call: inactive
OR7G3 [SID160766592] → total luciferase, z-score: 2.5; total luciferase, % of control: 132; activity call: inactive
NACA [SID160777755] → total luciferase, z-score: 3.19; total luciferase, % of control: 145; activity call: active
NACA [SID160777756] → total luciferase, z-score: 0.348; total luciferase, % of control: 88.8; activity call: inactive
NACA [SID160777757] → total luciferase, z-score: 0.994; total luciferase, % of control: 102; activity call: inactive
PUS7L [SID160751122] → total luciferase, z-score: -0.167; total luciferase, % of control: 78.6; activity call: inactive
PUS7L [SID160751123] → total luciferase, z-score: 0.163; total luciferase, % of control: 85.1; activity call: inactive
PUS7L [SID160751125] → total luciferase, z-score: -0.177; total luciferase, % of control: 78.4; activity call: inactive
SPSB4 [SID160754276] → total luciferase, z-score: 0.875; total luciferase, % of control: 99.3; activity call: inactive
SPSB4 [SID160754277] → total luciferase, z-score: -0.968; total luciferase, % of control: 62.6; activity call: inactive
SPSB4 [SID160754279] → total luciferase, z-score: -1.06; total luciferase, % of control: 60.9; activity call: inactive

Laid out differently: results already given.
FMN1 [SID160769178]
- total luciferase, z-score: 1.23
- total luciferase, % of control: 106
- activity call: inactive

FMN1 [SID160769179]
- total luciferase, z-score: -0.448
- total luciferase, % of control: 73
- activity call: inactive
